Test results from PubChem BioAssay AID720522 (National Center for Advancing Translational Sciences (NCATS), 2013).
In all, about 1,400 compounds went through this assay and about 60 (4%) were called active. Inconclusive results (about 7%) are left out. The call rests on the fitted dose curve; in most records, active means well fitted inhibition curve with a large enough effect; inconclusive means small, poorly fitted or top-dose-only effect; inactive means flat fitted curve, though single readings scatter. Only a part is listed here, and it is no random draw.

By UniProt entry, the sequences of proteins in these tests, tags left out.
UniProt P08659, whole entry, looked up: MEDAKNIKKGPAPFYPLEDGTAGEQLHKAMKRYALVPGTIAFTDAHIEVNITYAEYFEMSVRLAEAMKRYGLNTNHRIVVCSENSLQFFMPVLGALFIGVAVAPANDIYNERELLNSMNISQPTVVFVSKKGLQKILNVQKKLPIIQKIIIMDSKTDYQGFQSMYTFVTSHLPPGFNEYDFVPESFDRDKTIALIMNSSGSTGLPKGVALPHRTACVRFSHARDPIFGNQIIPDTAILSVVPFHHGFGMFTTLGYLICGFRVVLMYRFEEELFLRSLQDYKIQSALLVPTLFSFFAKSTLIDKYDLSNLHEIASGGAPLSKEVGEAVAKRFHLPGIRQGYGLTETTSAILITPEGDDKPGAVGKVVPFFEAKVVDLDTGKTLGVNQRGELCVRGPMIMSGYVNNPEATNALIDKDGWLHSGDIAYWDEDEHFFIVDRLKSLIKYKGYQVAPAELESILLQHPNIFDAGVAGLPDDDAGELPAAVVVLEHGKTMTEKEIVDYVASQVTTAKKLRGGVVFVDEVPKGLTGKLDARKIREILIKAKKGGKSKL

Target: Luciferin 4-monooxygenase (Photinus pyralis) (UniProt P08659)
Assay: Nrf2 qHTS screen for inhibitors: Purified Fluc Biochemical Counterscreen for Hit Validation; further: nearly all actives have a fitted effect of over 65% in size
Conditions: purified firefly luciferase, luminescence inhibition; series mostly up to 57.5 µM; activity change, negative = inhibition: at the top concentration
Description: Nrf2 is a transcription factor that maintains cellular redox homoestasis and protects cells from xenobiotics. Nrf2 binds to the antioxidant response element (ARE) to induce gene expression of a broad spectrum of genes that encode for antioxidants. […] Finding a small molecule that act as an inhibitor of Nrf2 function would represent a novel therapeutic target that could lead to improvement in survival of patients undergoing chemo- and/or radio- therapy.
A biochemical assay in 1536 well format was developed and utilized to remove compounds that inhibit the luciferase reporter (Fluc) rather than the Nrf2 enzyme. Inhibition of this assay = false positive inhibition of Nrf2.
NIH Chemical Genomics Center [NCGC]
NIH Molecular Libraries Probe Centers Network [MLPCN]
Assay Submitter (PI): Shyam Biswal, Johns Hopkins University
[1] Shibata T., et al., Genetic alteration of Keap1 confers constitutive Nrf2 activation and resistance to chemotherapy in gallbladder cancer. Gastroenterology, 2008.
[2] Sjoblom T., et al., The consensus coding sequences of human breast and colorectal cancers. Science, 2006.
Three microliter of substrate solution containing 50mM Tris acetate, 13.3 mM Mg-acetate, 0.01mM ATP, 0.01% Tween, 0.05% BSA and 0.01mM D-Luciferin (Sigma, #L9504) was dispensed into 1536 well white solid bottom assay plate (Greiner Bio, #789173-F). Twenty-three nanoliter of compounds dissolved in DMSO at different concentrations was added to the plate using a Kalypsys 1536-pin tool. Then 1 uL of firefly luciferase reagent containing 50mM Tris-acetate and 0.04uM P. pyralis luciferase (Sigma, #L9506) was added. The final DMSO concentration was maintained at 0.56%. Luminescence signal was acquired using the PerkinElmer Viewlux plate reader after incubation at room temperature for 10 minutes.
On the % scale 0 is the no-effect control and ±100 the full control effect; potency means the concentration at half of the fitted maximal effect.

Structure (SMILES)	activity change, negative = inhibition	Potency
CCC(C)(O)C(=O)OC1C(=O)OC2CC3C(C)=CC(=O)C(O)C3(C)C3C4(O)OCC23C1C(C)C4O (stereo not given)	inactive: -0.132%	
c1ccc2c(c1)[I+]c1ccccc1-2	inactive: 3.24%	
CC(=NNC(=S)N1CC2CCC(CC2)C1)c1nccs1		active: 19 µM
COc1cccc(NC(=O)CCc2nc(-c3ccc(C(C)(C)C)cc3)no2)c1		active: 2.39 µM
CC1=CC2OC3CC4OC(=O)C=CC=CC(C(C)O)OCC(O)C(C)CC(=O)OCC2(CC1O)C4(C)C31CO1 (stereo not given)	inactive: -12.6%	
